From publication PMC6910826
These are yes or no findings as the source states them, for the method shown.

Target: T1, Zasp52 PDZ domain (Drosophila melanogaster) (UniProt A1ZA47)
T1 sequence: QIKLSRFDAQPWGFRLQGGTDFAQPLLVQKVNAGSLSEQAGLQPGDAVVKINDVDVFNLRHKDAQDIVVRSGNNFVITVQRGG
Experiment: two-hybrid; Matchmaker Y2HGold yeast, double transformants; serial dilutions grown on -Ade/-His/-Leu/-Trp plates; done at least three times

With Zasp66-PH (Drosophila melanogaster) the binding was “no binding”.

In the case of Zasp66-PK (Drosophila melanogaster), the binding is reported as “no binding”.

For Zasp67-PD (Drosophila melanogaster), the binding was “no binding”.
